# The supplement of paper PMC6411743
# Protein sequences, listed by entry. Tags and fused reporters are not part of them. Lines headed by an entry give the natural chain unless they say otherwise; changes in a name come on top.
# UniProt P56202: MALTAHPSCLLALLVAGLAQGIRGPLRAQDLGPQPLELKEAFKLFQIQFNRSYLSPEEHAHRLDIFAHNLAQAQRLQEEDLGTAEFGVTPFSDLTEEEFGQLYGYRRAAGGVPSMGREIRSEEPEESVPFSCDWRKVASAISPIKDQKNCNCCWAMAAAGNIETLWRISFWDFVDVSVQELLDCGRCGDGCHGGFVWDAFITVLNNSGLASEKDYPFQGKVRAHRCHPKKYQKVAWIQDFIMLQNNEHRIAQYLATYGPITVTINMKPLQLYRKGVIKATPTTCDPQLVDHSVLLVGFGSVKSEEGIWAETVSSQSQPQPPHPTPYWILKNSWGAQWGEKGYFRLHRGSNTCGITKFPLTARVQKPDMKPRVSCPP
# UniProt P27816: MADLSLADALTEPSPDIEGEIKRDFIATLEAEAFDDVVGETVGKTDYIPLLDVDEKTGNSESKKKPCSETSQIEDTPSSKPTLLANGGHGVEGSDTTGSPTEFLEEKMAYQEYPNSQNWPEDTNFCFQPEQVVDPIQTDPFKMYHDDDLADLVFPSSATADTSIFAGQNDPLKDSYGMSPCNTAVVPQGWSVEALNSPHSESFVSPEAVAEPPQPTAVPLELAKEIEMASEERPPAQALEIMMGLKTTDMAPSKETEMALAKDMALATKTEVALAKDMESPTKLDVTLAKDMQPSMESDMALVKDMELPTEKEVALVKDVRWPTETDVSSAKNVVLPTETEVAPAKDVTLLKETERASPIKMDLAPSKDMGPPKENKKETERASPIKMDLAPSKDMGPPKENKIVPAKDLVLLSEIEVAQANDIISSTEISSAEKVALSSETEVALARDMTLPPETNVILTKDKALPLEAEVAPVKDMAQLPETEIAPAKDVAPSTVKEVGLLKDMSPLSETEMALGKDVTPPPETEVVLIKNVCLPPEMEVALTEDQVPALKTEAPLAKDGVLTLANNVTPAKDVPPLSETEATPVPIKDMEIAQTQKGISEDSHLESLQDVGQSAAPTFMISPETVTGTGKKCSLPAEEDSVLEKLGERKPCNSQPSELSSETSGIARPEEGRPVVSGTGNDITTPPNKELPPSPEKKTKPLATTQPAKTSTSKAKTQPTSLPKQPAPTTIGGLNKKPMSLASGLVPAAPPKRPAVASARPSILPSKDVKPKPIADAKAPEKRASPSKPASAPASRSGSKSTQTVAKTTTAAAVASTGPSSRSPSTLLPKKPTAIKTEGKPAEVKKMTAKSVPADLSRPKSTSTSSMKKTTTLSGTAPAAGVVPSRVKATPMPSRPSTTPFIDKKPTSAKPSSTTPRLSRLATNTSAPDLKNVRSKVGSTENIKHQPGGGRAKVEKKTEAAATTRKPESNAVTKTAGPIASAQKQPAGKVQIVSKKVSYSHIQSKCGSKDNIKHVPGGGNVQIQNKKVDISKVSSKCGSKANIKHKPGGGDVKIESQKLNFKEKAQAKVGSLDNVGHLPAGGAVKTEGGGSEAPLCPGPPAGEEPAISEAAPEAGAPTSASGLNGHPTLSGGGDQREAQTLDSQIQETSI
# UniProt P56134: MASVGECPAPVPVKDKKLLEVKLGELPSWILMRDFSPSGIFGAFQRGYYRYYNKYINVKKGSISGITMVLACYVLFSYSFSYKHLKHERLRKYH
# UniProt P43250, whole entry, looked up: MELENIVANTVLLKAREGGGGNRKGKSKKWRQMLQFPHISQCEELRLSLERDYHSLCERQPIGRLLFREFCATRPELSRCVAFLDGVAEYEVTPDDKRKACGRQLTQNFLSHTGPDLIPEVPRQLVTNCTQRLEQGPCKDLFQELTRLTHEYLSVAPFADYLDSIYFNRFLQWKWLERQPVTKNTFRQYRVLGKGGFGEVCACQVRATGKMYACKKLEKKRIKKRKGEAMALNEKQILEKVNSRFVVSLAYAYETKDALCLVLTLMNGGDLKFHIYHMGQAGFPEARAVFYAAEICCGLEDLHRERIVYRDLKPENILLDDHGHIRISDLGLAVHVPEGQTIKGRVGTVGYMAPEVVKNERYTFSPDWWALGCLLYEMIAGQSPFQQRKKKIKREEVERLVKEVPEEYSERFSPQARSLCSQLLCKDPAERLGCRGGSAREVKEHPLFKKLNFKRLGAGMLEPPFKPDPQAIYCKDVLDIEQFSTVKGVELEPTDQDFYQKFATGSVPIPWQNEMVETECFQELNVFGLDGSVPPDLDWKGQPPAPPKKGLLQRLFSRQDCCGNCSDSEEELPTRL
# UniProt Q86UB9: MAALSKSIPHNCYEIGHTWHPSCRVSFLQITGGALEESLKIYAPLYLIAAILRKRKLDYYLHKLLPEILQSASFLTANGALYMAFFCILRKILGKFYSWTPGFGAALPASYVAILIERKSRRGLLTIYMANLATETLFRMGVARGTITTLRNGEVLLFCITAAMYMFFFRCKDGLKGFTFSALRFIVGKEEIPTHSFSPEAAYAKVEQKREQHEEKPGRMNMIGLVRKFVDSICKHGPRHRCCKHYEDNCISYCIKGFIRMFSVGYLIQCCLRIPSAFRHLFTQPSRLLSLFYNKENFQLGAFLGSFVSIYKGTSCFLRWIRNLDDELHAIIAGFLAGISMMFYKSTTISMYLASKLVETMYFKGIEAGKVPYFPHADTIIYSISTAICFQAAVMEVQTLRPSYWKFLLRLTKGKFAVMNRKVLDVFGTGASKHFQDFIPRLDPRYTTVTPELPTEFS
# UniProt P07766, whole entry: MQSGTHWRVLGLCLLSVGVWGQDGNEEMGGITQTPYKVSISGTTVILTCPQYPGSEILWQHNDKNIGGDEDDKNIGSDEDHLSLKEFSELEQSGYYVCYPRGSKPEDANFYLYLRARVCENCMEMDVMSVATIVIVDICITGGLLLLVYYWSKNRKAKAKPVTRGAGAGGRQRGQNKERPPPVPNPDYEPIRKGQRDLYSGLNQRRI
# UniProt Q8WW01: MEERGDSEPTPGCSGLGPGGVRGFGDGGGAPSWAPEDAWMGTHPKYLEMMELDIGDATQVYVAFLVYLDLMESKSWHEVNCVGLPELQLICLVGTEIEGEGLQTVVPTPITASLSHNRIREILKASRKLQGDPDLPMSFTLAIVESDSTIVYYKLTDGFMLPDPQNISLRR
# UniProt Q9BQE3, whole entry: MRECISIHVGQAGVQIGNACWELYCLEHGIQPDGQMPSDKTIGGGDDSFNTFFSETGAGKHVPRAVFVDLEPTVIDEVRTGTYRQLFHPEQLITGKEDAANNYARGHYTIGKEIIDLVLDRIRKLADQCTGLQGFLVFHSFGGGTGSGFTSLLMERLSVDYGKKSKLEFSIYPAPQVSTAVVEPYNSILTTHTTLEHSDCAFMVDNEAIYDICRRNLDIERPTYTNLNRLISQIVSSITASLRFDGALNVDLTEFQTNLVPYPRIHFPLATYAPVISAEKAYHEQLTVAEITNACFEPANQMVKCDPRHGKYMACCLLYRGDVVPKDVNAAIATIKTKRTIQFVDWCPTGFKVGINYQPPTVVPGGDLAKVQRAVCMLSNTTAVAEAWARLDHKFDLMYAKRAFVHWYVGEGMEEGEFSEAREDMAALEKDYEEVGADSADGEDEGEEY
# UniProt Q8TAQ2, whole entry: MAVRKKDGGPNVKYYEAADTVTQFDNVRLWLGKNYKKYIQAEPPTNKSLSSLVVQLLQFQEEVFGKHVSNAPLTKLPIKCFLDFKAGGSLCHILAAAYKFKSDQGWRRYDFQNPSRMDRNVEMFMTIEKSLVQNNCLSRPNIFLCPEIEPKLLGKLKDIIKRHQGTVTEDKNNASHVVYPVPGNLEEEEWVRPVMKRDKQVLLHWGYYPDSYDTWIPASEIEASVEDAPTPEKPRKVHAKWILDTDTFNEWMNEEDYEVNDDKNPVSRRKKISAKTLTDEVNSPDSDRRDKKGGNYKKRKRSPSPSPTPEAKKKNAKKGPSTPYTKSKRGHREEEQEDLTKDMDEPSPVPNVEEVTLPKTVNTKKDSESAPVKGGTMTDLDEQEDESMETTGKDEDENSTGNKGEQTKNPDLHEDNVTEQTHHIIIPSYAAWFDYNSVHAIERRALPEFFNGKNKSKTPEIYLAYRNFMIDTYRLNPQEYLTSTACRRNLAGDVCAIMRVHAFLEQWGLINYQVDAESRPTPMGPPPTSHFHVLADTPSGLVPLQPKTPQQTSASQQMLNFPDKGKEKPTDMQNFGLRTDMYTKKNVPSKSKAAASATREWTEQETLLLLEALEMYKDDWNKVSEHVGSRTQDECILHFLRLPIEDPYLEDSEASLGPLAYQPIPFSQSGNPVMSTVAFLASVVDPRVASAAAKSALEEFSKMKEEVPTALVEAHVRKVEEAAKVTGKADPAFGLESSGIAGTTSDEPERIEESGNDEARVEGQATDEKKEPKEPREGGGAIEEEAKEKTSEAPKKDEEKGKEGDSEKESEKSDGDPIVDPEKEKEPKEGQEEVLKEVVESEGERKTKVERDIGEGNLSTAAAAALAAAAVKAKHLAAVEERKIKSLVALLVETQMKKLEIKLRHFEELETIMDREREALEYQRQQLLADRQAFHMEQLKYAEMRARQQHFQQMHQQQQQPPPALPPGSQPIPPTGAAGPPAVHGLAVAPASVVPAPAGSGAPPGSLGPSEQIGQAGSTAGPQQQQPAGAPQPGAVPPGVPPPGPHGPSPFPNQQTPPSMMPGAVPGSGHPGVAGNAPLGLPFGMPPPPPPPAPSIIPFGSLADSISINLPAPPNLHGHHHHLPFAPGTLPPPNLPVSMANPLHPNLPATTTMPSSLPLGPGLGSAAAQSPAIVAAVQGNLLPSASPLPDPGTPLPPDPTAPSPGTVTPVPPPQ
# UniProt P08962, whole entry: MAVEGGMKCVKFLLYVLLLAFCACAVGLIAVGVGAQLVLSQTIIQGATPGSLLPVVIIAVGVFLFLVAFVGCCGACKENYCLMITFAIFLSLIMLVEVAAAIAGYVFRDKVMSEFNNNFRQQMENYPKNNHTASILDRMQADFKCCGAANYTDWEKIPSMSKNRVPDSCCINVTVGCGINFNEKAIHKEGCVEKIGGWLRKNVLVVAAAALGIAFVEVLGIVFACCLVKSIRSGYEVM
# UniProt Q9HB07: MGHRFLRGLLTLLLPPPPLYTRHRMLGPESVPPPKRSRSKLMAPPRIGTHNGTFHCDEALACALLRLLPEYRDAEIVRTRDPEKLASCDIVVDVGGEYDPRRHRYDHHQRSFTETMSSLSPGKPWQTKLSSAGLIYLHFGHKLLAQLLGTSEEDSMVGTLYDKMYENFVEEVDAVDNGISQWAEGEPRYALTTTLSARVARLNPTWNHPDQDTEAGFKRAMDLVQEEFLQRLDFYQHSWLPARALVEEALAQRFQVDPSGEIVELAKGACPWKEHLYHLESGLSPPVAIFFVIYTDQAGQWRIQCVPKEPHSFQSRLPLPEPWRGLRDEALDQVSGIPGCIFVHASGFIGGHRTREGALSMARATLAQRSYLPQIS
# UniProt P28290: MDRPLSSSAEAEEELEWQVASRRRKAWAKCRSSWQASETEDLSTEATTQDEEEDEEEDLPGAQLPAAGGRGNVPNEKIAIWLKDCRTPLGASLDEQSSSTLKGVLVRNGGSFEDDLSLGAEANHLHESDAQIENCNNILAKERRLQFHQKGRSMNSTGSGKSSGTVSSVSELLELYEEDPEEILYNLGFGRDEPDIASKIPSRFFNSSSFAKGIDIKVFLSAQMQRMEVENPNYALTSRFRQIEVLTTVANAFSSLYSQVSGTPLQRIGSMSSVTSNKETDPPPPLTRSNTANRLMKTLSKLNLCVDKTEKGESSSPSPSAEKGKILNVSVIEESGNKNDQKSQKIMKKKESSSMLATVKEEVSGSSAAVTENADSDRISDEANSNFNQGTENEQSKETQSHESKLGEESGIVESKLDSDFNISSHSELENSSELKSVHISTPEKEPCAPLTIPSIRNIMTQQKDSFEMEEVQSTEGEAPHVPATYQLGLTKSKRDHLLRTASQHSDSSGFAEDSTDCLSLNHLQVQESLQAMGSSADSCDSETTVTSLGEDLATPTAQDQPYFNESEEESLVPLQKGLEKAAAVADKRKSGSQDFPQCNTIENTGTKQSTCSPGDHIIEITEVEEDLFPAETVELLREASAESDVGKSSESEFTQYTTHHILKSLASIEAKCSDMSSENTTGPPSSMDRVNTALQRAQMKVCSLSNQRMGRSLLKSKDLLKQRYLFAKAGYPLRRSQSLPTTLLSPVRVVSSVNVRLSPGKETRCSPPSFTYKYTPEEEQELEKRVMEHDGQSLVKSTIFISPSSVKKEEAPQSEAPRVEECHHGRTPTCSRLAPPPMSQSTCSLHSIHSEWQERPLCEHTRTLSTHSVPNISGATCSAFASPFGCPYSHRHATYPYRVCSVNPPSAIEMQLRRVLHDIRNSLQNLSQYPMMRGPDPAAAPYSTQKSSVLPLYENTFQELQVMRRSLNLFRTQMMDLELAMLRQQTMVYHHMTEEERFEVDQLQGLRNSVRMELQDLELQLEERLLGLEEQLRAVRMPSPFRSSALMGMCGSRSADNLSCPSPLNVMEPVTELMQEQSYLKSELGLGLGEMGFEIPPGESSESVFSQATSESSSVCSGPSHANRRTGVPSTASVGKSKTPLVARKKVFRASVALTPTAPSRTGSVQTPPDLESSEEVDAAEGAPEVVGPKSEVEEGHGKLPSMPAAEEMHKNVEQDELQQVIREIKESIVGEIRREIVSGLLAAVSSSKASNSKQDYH
# ± gives the standard deviation of the averaged measurements. The entries are a selection whose mix differs from that of the whole data set.
# Compound: Nc1ncnc2c1ncn2[C@@H]1O[C@H](COP(=O)(O)OP(=O)(O)NP(=O)(O)O)[C@@H](O)[C@H]1O [adenylyl imidodiphosphate]
# Test: NP40-soluble protein abundance relative to vehicle (solubility fold change) (ratio); higher = more soluble protein in presence of AMP-PNP
# Method in brief: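 Each value is a fold change relative to the detergent-processed vehicle, calculated per replicate from vsn-normalised intensities. Jurkat crude lysate received eight concentrations (0.1 to 10 mM) for 10 min at room temperature and 3 min at 37 °C, then was solubilised in 0.8% NP40 with benzonase (60 min, 4 °C). The ultracentrifuged supernatant was TMT-labelled and run by LC-MS/MS in three independent experiments.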
Target,NP40-soluble protein abundance (concentration: 1mM),NP40-soluble protein abundance (concentration: 2mM),NP40-soluble protein abundance (concentration: 4mM),NP40-soluble protein abundance (concentration: 6mM),NP40-soluble protein abundance (concentration: 8mM),NP40-soluble protein abundance (concentration: 10mM)
E9PRF4 and related entries (UniProt Q15047),0.953 ± 0.017,0.981 ± 0.057,0.95 ± 0.013,0.954 ± 0.015,0.927 ± 0.011,0.942 ± 0.017
E9PI30 and related entries (UniProt P56202),0.986 ± 0.023,0.997 ± 0.016,0.984 ± 0.016,0.9712 ± 0.0083,0.96 ± 0.021,0.954 ± 0.04
F6U236 and related entries (UniProt Q9BY11),0.978 ± 0.036,1.03 ± 0.057,0.968 ± 0.018,1 ± 0.063,0.978 ± 0.069,0.989 ± 0.054
E7EVA0 and related entries (UniProt P27816),1.04 ± 0.018,1.1 ± 0.075,1.02 ± 0.05,1.04 ± 0.026,1 ± 0.044,1.03 ± 0.088
G3V325 (UniProt P56134),0.999 ± 0.015,0.982 ± 0.016,0.97 ± 0.0093,0.9654 ± 0.0065,0.999 ± 0.029,0.976 ± 0.038
F8W7U0 and related entries (UniProt Q15811),1.03 ± 0.036,1.01 ± 0.033,1.01 ± 0.051,1.01 ± 0.028,0.952 ± 0.042,0.996 ± 0.051
F8W9W2 and related entries (UniProt P43250),1.07 ± 0.023,1.05 ± 0.075,1.09 ± 0.052,1.1 ± 0.068,1.12 ± 0.026,1.12 ± 0.082
E7EUI8 and related entries (UniProt P11413),0.974 ± 0.049,0.852 ± 0.14,0.946 ± 0.026,0.928 ± 0.041,0.981 ± 0.028,0.892 ± 0.021
E9PEQ6 and related entries (UniProt Q9UNP9),0.993 ± 0.041,1 ± 0.031,0.983 ± 0.035,0.998 ± 0.064,0.954 ± 0.048,0.957 ± 0.046
E9PQL0 and related entries (UniProt Q86UB9),1 ± 0.016,1 ± 0.019,1.03 ± 0.045,1.04 ± 0.074,1.05 ± 0.066,1.05 ± 0.056
E7EQV9 and related entries (UniProt P61313),1.06 ± 0.1,0.959 ± 0.067,0.945 ± 0.07,0.92 ± 0.039,0.803 ± 0.046,0.985 ± 0.14
E9PSH8 and related entries (UniProt P07766),1.03 ± 0.012,1.1 ± 0.046,1.05 ± 0.019,1.04 ± 0.018,1.06 ± 0.03,1.1 ± 0.071
E7ESS3 and related entries (UniProt Q71RG4),1.01 ± 0.037,1.03 ± 0.045,1 ± 0.039,0.996 ± 0.012,1.01 ± 0.037,1 ± 0.032
E9PPN1 and related entries (UniProt Q8WW01),0.997 ± 0.013,0.978 ± 0.049,0.974 ± 0.037,0.996 ± 0.021,0.991 ± 0.043,0.99 ± 0.039
E5RIH5 and related entries (UniProt Q6NXR4),0.957 ± 0.042,0.99 ± 0.05,0.964 ± 0.04,0.939 ± 0.048,0.926 ± 0.034,0.925 ± 0.024
E7EVH9 and related entries (UniProt Q08623),0.978 ± 0.01,0.953 ± 0.011,0.983 ± 0.024,1.02 ± 0.019,0.979 ± 0.013,0.977 ± 0.034
F5H0U5 and related entries (UniProt Q9NZD2),0.966 ± 0.087,0.999 ± 0.048,0.954 ± 0.11,0.915 ± 0.051,0.936 ± 0.047,0.888 ± 0.099
E9PK67 and related entries (UniProt Q53GL7),0.991 ± 0.027,0.981 ± 0.025,1.03 ± 0.033,0.989 ± 0.012,0.959 ± 0.027,0.975 ± 0.027
F5H7J9 and related entries (UniProt O75581),0.992 ± 0.032,1 ± 0.061,0.972 ± 0.021,0.971 ± 0.061,0.98 ± 0.053,0.97 ± 0.01
E9PJH7 and related entries (UniProt Q9H936),0.943 ± 0.027,0.917 ± 0.019,1 ± 0.075,1.08 ± 0.098,1.09 ± 0.08,1.08 ± 0.067
F5H5D3 and related entries (UniProt Q9BQE3),0.99 ± 0.012,0.933 ± 0.071,0.94 ± 0.036,0.93 ± 0.052,0.94 ± 0.072,0.92 ± 0.076
F8VXC8 and related entries (UniProt Q8TAQ2),1.03 ± 0.034,1.07 ± 0.04,1.04 ± 0.047,1.04 ± 0.1,1.04 ± 0.064,1.09 ± 0.1
F6T1Q0 and related entries (UniProt Q6L8Q7),0.978 ± 0.033,0.888 ± 0.096,0.935 ± 0.029,0.908 ± 0.02,0.924 ± 0.029,0.877 ± 0.033
F8VV56 and related entries (UniProt P08962),0.969 ± 0.045,0.988 ± 0.093,0.946 ± 0.069,0.972 ± 0.036,0.959 ± 0.025,0.944 ± 0.065
F8VRH0 and related entries (UniProt Q15366),1.04 ± 0.013,1.08 ± 0.074,1.05 ± 0.039,1.07 ± 0.037,1.05 ± 0.062,1.08 ± 0.059
F6S8M0 and related entries (UniProt P15586),0.935 ± 0.055,0.994 ± 0.064,0.927 ± 0.046,0.974 ± 0.026,0.924 ± 0.033,0.959 ± 0.032
E7EVQ6 and related entries (UniProt Q14534),1.03 ± 0.016,1.01 ± 0.062,1.02 ± 0.038,0.986 ± 0.04,1.02 ± 0.057,1.02 ± 0.082
F8VQQ3 and related entries (UniProt Q9HB07),1.04 ± 0.021,0.994 ± 0.027,1.03 ± 0.015,0.994 ± 0.02,1.01 ± 0.023,0.998 ± 0.05
E9PJM3 and related entries (UniProt Q9UK99),0.964 ± 0.03,0.913 ± 0.081,0.972 ± 0.045,0.964 ± 0.011,0.962 ± 0.03,0.95 ± 0.059
E9PHV5 and related entries (UniProt P28290),0.98 ± 0.045,0.999 ± 0.012,0.983 ± 0.043,0.984 ± 0.029,0.999 ± 0.023,1.01 ± 0.017

# Some of the entries so far, with bars between the fields:
Target | NP40-soluble protein abundance (concentration: 1mM) | NP40-soluble protein abundance (concentration: 2mM) | NP40-soluble protein abundance (concentration: 4mM) | NP40-soluble protein abundance (concentration: 6mM) | NP40-soluble protein abundance (concentration: 8mM) | NP40-soluble protein abundance (concentration: 10mM)
G3V325 (UniProt P56134) | 0.999 ± 0.015 | 0.982 ± 0.016 | 0.97 ± 0.0093 | 0.9654 ± 0.0065 | 0.999 ± 0.029 | 0.976 ± 0.038
F8W7U0 and related entries (UniProt Q15811) | 1.03 ± 0.036 | 1.01 ± 0.033 | 1.01 ± 0.051 | 1.01 ± 0.028 | 0.952 ± 0.042 | 0.996 ± 0.051
